Source: PubChem BioAssay AID332 (DTP/NCI, 2004)
The list shows only some results of the screen, not a fair sample: it is rich in T/C values a quarter to a half above the control, in often repeated tests (any T/C) and in doses without a T/C. Further doses and runs are listed elsewhere. T/C: endpoint of the treated group in % of that of the vehicle group. Schedule codes are those of the source, read here as Q, the interval in days (D) or hours (H), X, the number of doses. Some T/C values are followed by the survivors on the day toxicity was checked, most often the fifth; where none is given, no animal had died by that day. Some entries give survivors of the animals treated and no T/C: the source holds a T/C of zero for them, seemingly a mark for toxic or unscored doses. Counts of survivors are from the toxicity check (mostly the fifth day) where no day follows; animals may have died later. Numbered stars: 1 amine (or outer) side, 2 acyl side, 3 side chain; on linkers, the order of the positions; unused ones are H or OH. Bridge positions count the residues as written; N and C are the ends. Square brackets hold non-standard residues; d marks the D form. Peptide text beside a SMILES is read from it. I, II: the chains in the order shown. Actinocin(9to1) = Cc1c2oc3c(C)ccc(C(=O)[*:1])c3nc-2c(C(=O)[*:2])c(N)c1=O; aThr = C[C@H](O)[C@H](N)C(=O)O; NMeV = CN[C@H](C(=O)O)C(C)C; Sar = CNCC(=O)O

Tested on: mice, ADJ-PC-20 plasma cell tumor sc, T/C %
Assay: NCI In Vivo Anticancer Drug Screen. Data for tumor model ADJ-PC-20 Plasma Cell (subcutaneous) in unknown mice
Conditions: T/C endpoint: mean tumor weight, higher T/C = larger tumour; for T/C: evaluated on day 21
Protocol: The antitumor activity of compounds was measured in mice bearing transplantable tumors. Survival or tumor size were measured and the results are expressed as the measurement made in the treated group (T) divided by the measurement made in the vehicle treated control group (C). The tumor model used in this assay is ADJ-PC-20 Plasma Cell (subcutaneous) in unknown mice

[1] = dose: 80.0 mg/kg/injection, schedule: Q01DX010 (ip), vehicle: carboxymethylcellulose (CMC)
[2] = dose: 25.0 mg/kg/injection, schedule: Q01DX010 (ip), vehicle: saline
[3] = dose: 2.0 mg/kg/injection, schedule: Q01DX010 (ip), vehicle: carboxymethylcellulose (CMC)
[4] = dose: 50.0 mg/kg/injection, schedule: Q01DX010 (ip), vehicle: carboxymethylcellulose (CMC)
[5] = dose: 200.0 mg/kg/injection, schedule: Q01DX010 (ip), vehicle: carboxymethylcellulose (CMC)

N=C(N)SCc1c2ccccc2c(CSC(=N)N)c2ccccc12
survivor count (dose: 40.0 mg/kg/injection, schedule: Q01DX010 (ip), vehicle: carboxymethylcellulose (CMC)): 6 of 10 | survivor count [1]: 0 of 10

CC(CCC(C)OS(C)(=O)=O)OS(C)(=O)=O (configuration not stated)
survivor count [1]: 0 of 10 | survivor count (dose: 160.0 mg/kg/injection, schedule: Q01DX010 (ip), vehicle: carboxymethylcellulose (CMC)): 0 of 10

C[C@@H]1C[C@@H]([C@H](O)CC2CC(=O)NC(=O)C2)C(=O)[C@@H](C)C1
survivor count (dose: 12.5 mg/kg/injection, schedule: Q01DX010 (ip), vehicle: saline): 6 of 10 | survivor count [2]: 0 of 10

Nc1nc(=S)c2[nH]cnc2[nH]1
survivor count (dose: 0.5 mg/kg/injection, schedule: Q01DX010 (ip), vehicle: carboxymethylcellulose (CMC)): 0 of 10 | survivor count [3]: 0 of 10

O=C(Nc1ccc(C2=NCCN2)cc1)c1cccc(C(=O)Nc2ccc(C3=NCCN3)cc2)c1
survivor count (dose: 75.0 mg/kg/injection, schedule: Q01DX010 (ip), vehicle: carboxymethylcellulose (CMC)): 2 of 10

C[C@]12CCC(=O)C=C1CC[C@H]1[C@@H]3CC[C@](O)(C(=O)CO)[C@@]3(C)C[C@H](O)[C@@]12F
survivor count (dose: 20.0 mg/kg/injection, schedule: Q01DX010 (sc), vehicle: steroid suspending solution): 4 of 10

Cc1cc(N(CCCl)CCCl)ccc1N=Nc1ccccc1C(=O)O
survivor count (dose: 60.0 mg/kg/injection, schedule: Q01DX010 (ip), vehicle: carboxymethylcellulose (CMC)): 0 of 10

CSc1ncnc2c1ncn2C1OC(CO)C(O)C1O (configuration not stated)
survivor count (dose: 6.25 mg/kg/injection, schedule: Q01DX010 (ip), vehicle: carboxymethylcellulose (CMC)): 6 of 10 | survivor count [4]: 0 of 10 | survivor count (dose: 100.0 mg/kg/injection, schedule: Q01DX010 (ip), vehicle: carboxymethylcellulose (CMC)): 0 of 10 | survivor count [5]: 0 of 10

Nc1ncnc2[nH]ncc12
survivor count [4]: 0 of 10

O=C(Nc1ccc(NC2=NCCN2)cc1)c1ccc(C(=O)Nc2ccc(NC3=NCCN3)cc2)cc1
survivor count (dose: 16.0 mg/kg/injection, schedule: Q01DX010 (ip), vehicle: saline): 5 of 10 | survivor count (dose: 32.0 mg/kg/injection, schedule: Q01DX010 (ip), vehicle: saline): 0 of 10

NC(=O)c1ccc(N)nc1
T/C (dose: 0.63 mg/kg/injection, schedule: Q01DX010 (ip), vehicle: water): 149 % of control | survivor count (dose: 2.5 mg/kg/injection, schedule: Q01DX010 (ip), vehicle: saline): 5 of 10 | survivor count (dose: 5.0 mg/kg/injection, schedule: Q01DX010 (ip), vehicle: saline): 0 of 10

CCCSc1ncnc2nc[nH]c12
T/C [3]: 133 % of control

CCN(CC)CCNc1ccc(C)c2sc3ccccc3c(=O)c12
T/C (dose: 3.12 mg/kg/injection, schedule: Q01DX010 (ip), vehicle: methylcellulose (MC)): 145 % of control [9 of 10 alive] | survivor count (dose: 100.0 mg/kg/injection, schedule: Q01DX010 (ip), vehicle: methylcellulose (MC)): 4 of 10

Cc1c2oc3c(C)ccc(C(=O)N[C@@H]4C(=O)N[C@H](C(C)C)C(=O)N5CCC[C@H]5C(=O)N(C)CC(=O)N(C)[C@@H](C(C)C)C(=O)O[C@H]4C)c3nc-2c(C(=O)N[C@@H]2C(=O)N[C@H](C(C)C)C(=O)N3CCC[C@H]3C(=O)N(C)CC(=O)N(C)[C@@H](C(C)C)C(=O)O[C@H]2C)c(N)c1=O (I: [aThr][dV]P[Sar][NMeV] / II: [aThr][dV]P[Sar][NMeV]; ester I:1-I:C, II:1-II:C; linker I:N-II:N via Actinocin(9to1))
T/C (dose: 18.7 micrograms/kg/injection, schedule: Q01DX010 (ip), vehicle: saline): 142 % of control | survivor count (dose: 25.0 micrograms/kg/injection, schedule: Q01DX010 (ip), vehicle: saline): 6 of 10 | survivor count (dose: 50.0 micrograms/kg/injection, schedule: Q01DX010 (ip), vehicle: saline): 0 of 10

C[C@]12CCC(=O)C[C@H]1CC[C@@H]1[C@@H]2CC[C@@]2(C)[C@H]1CC[C@]2(C)O
survivor count (dose: 62.5 mg/kg/injection, schedule: Q01DX010 (sc), vehicle: steroid suspending solution): 6 of 10 | T/C (dose: 125.0 mg/kg/injection, schedule: Q01DX010 (sc), vehicle: steroid suspending solution): 128 % of control

COc1cc2c(c(OC)c1OC)-c1ccc(OC)c(=O)cc1[C@@H](NC(C)=O)CC2
survivor count (dose: 0.12 mg/kg/injection, schedule: Q01DX010 (ip), vehicle: saline): 6 of 10 | survivor count (dose: 0.25 mg/kg/injection, schedule: Q01DX010 (ip), vehicle: saline): 5 of 10 | survivor count (dose: 0.5 mg/kg/injection, schedule: Q01DX010 (ip), vehicle: saline): 1 of 10 | survivor count (dose: 1.0 mg/kg/injection, schedule: Q01DX010 (ip), vehicle: saline): 0 of 10 | survivor count (dose: 63.0 micrograms/kg/injection, schedule: Q01DX010 (ip), vehicle: saline): 5 of 10

O=C(Nc1ccc(C2=NCCN2)cc1)c1ccc(C(=O)Nc2ccc(C3=NCCN3)cc2)c(Cl)c1
survivor count (dose: 12.5 mg/kg/injection, schedule: Q01DX010 (ip), vehicle: water): 5 of 10 | survivor count (dose: 15.0 mg/kg/injection, schedule: Q01DX010 (ip), vehicle: water): 6 of 10 | survivor count (dose: 30.0 mg/kg/injection, schedule: Q01DX010 (ip), vehicle: water): 6 of 10 | survivor count (dose: 50.0 mg/kg/injection, schedule: Q01DX010 (ip), vehicle: water): 1 of 10 | survivor count (dose: 60.0 mg/kg/injection, schedule: Q01DX010 (ip), vehicle: water): 2 of 10

O=C(O)CCCc1ccc(N(CCCl)CCCl)cc1
survivor count (dose: 25.0 mg/kg/injection, schedule: Q01DX010 (ip), vehicle: carboxymethylcellulose (CMC)): 5 of 10 | survivor count [4]: 0 of 10

Nc1nc(N)c2nc(CNc3ccc(C(=O)NC(CCC(=O)O)C(=O)O)cc3)cnc2n1 (configuration not stated)
survivor count (dose: 250.0 micrograms/kg/injection, schedule: Q01DX010 (ip), vehicle: alkali diluted with saline): 4 of 10 | survivor count (dose: 500.0 micrograms/kg/injection, schedule: Q01DX010 (ip), vehicle: alkali diluted with saline): 2 of 10

C[C@]12CCC(=O)C=C1CC[C@@H]1[C@@H]2CC[C@@]2(C)[C@H]1CC[C@]2(C)O
survivor count (dose: 500.0 mg/kg/injection, schedule: Q01DX010 (sc), vehicle: steroid suspending solution): 6 of 10 | survivor count (dose: 1000.0 mg/kg/injection, schedule: Q01DX010 (sc), vehicle: steroid suspending solution): 1 of 10

O=c1[nH]cc(F)c(=O)[nH]1
T/C (dose: 3.12 mg/kg/injection, schedule: Q01DX010 (ip), vehicle: saline): 142 % of control [9 of 10 alive] | survivor count [2]: 0 of 10

NC(=O)N(CCCl)N=O
survivor count (dose: 14.0 mg/kg/injection, schedule: Q01DX010 (ip), vehicle: carboxymethylcellulose (CMC)): 0 of 10

OCC1OC(n2cnc3c(Cl)ncnc32)C(O)C1O (configuration not stated)
survivor count (dose: 2000.0 mg/kg/injection, schedule: Q01DX010 (ip), vehicle: carboxymethylcellulose (CMC)): 0 of 10 | survivor count (dose: 4000.0 mg/kg/injection, schedule: Q01DX010 (ip), vehicle: carboxymethylcellulose (CMC)): 0 of 10

CS(=O)(=O)OCCCl
survivor count [5]: 3 of 10 | survivor count (dose: 400.0 mg/kg/injection, schedule: Q01DX010 (ip), vehicle: carboxymethylcellulose (CMC)): 0 of 10
